This assay is described as follows: qHTS Assay for Lipid Storage Modulators in Drosophila S3 Cells.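 For cell number change: cells counted by Cell Tracker Red CMTPX staining in the red channel.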 The following applies: BODIPY lipid droplet fluorescence, 18-24 h; for cell number change: measured here: cell count max response, cells fed with added oleic acid. The procedure, abridged: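 Drosophila S3 cells got compounds at several concentrations plus oleic acid (400 uM solution). Laser-scanning cytometry with 488 nm excitation read lipid droplets at 500-530 nm and cells at 575-640 nm. Percent activity was relative to 20 uM Triacsin C.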

[1] abbreviates: measured here: cell number channel AC50, cells fed with added oleic acid.
The mark [2] stands for this setting: measured here: lipid fluorescence (Fed channel) AC50, cells fed with added oleic acid.

This is one part of the list. The main result of the screen is listed elsewhere. These columns were measured beside it and carry no call. Most of these compounds were active or inconclusive in the main read-out, so they are no random draw. Potencies come from curve fits of mixed quality, noted in brackets.

As a reminder, the AC50 is the concentration at which the activity in the assay is half-maximal. The low end stands for greater potency, the high end for weaker potency. Turning to `CCCS(=O)(=O)N1CCCC(c2nc(-c3cccc(OC)c3)no2)C1` (stereo unspecified), the cell number change was -30.1%. In addition, the AC50 under setting [1] is 11.6 µM [falling, partial curve].

As for `Cc1[nH]c(C(=O)O)c(C)c1C(=O)OC(C)C`, the cell number change is -5.29%. The AC50 under setting [2] is 7.31 µM [falling, partial curve].

Consider `C=CCn1c(SCC(=O)NNC(=O)Nc2cccc(Cl)c2)nnc1-c1ccccc1`, for which the cell number change was -0.258%.

Turning to `CC(OC(=O)c1cc[n+]([O-])cc1)C(=O)Nc1ccc(Cl)cn1` (stereo unspecified), the cell number change was -0.128%.

On to `Cc1cnc(C(=O)OCC(=O)NC2CCCCCCC2)cn1`, for which the cell number change was -25.2%.

Take `COC(=O)CSc1nc(C)cc(N2CCOCC2)n1`: the cell number change is -17.9%.

`CN1c2ccsc2/C(=N/NC(=O)c2c(F)cccc2F)CS1(=O)=O`: the cell number change is 22.1%.

Consider `CC1(C(=O)NC2CCCC2)CCC(=O)N1Cc1ccc2c(c1)OCO2` (stereo unspecified), for which the cell number change is 19.1%. The concentration at half-maximal activity (AC50) under setting [2] was 16.4 µM [rising, single point].

As to `O=C(Nc1cccnc1)c1ccc(Cl)c([N+](=O)[O-])c1`, the cell number change stood at 19.9%.

With `O=C(COC(=O)Cc1ccc(Cl)cc1)NCc1ccc(F)cc1`, the cell number change was found to be 16.1%.

In the case of `Cc1ccc(C2/C(=C(/O)c3ccc(Br)cc3)C(=O)C(=O)N2Cc2ccco2)o1` (stereo unspecified), the cell number change was -24.4%. For the same compound, the half-maximal activity concentration (AC50) under setting [1] is 0.231 µM [falling, full curve, poor fit].

On to `Cc1ccccc1Nc1nc(N)nc(COC(=O)C2CCCCC2)n1`, for which the cell number change was found to be 25.2%. Besides, the AC50 under setting [1] is 1.64 µM [rising, partial curve, poor fit].

`O=C(CNC(=O)c1nc[nH]c1C(=O)N1CCN(c2ccccc2)CC1)OCc1ccccc1`: the cell number change worked out at 19.5%. Further, the AC50 under setting [2] is 0.731 µM [falling, full curve].

As for `CCCCNC(=O)c1cc(-c2ccc(OC)cc2)on1`, the cell number change is -7.78%. For the same compound, the AC50 under setting [2] is 2.59 µM [rising, partial curve].

As for `Clc1ccc(Cn2ncc3c(NCCN4CCOCC4)ncnc32)cc1`, the cell number change came out at 11.8%. Also, the AC50 under setting [2] was 16.4 µM [rising, single point].

Turning to `Clc1ccc(CSc2cc3c(nn2)-c2ccccc2CC3)cc1Cl`, the cell number change was determined as 58.3%. Besides, the concentration at half-maximal activity (AC50) under setting [1] was 13 µM [rising, partial curve]. Under setting [2], the concentration at half-maximal activity (AC50) was 29.1 µM [rising, single point].

With `O=C(c1cccs1)N1CCN(CCCc2ccccc2)CC1`, the cell number change was -0.533%.

As for `CCOC(=O)N1CCN(C(=O)COC(=O)CN(C)S(=O)(=O)c2ccc(NC(C)=O)cc2)CC1`, the cell number change turned out to be 8.11%.

Turning to `CCOc1ccccc1/C=N/NC(=O)CSc1n[nH]c(=O)[nH]c1=O`, the cell number change is -26.2%. Moreover, the concentration at half-maximal activity (AC50) under setting [2] is 0.291 µM [falling, partial curve, poor fit].

As to `Cc1cc(C(=O)Cn2nnc3ccccc3c2=O)c(C)n1Cc1cccs1`, the cell number change was -37.4%. For the same compound, under setting [1], the AC50 was 32.6 µM [falling, single point].

As for `O=C(O)c1ccc(COc2ccc(Cl)cc2)o1`, the AC50 under setting [2] is 18.4 µM [falling, partial curve].

Turning to `O=C(NCCNC(=O)c1ccc(Br)o1)c1cccnc1`, the cell number change is 21.3%.

Consider `O=C(c1ccc(=O)[nH]n1)N1CCN(S(=O)(=O)c2ccc(C(F)(F)F)cc2)CC1`, for which the cell number change stood at 2.43%. Besides, under setting [2], the half-maximal activity concentration (AC50) was 0.0291 µM [falling, full curve, poor fit].

Regarding `CC(=O)n1cc([C@@H]2C=C(C(=O)NCc3ccccc3)O[C@H](OCc3ccc(CO)cc3)C2)c2ccccc21`, the cell number change was -27.8%. Also, the AC50 under setting [2] is 32.6 µM [falling, single point].

As to `Cc1ccccc1-c1nc(SCc2ccccn2)c2c(=O)n(C)c(=O)n(C)c2n1`, the cell number change worked out at 2.77%.

`COC(=O)C1CCN(C(=O)/C(C)=C\c2ccccc2)CC1`: the cell number change was -3.17%. Moreover, the AC50 under setting [2] was 9.2 µM [falling, partial curve, poor fit].

With `CCc1cc2c(-c3ccccc3)cc(=O)oc2cc1OC(C)C(C)=O` (stereo unspecified), the cell number change was -32.3%. The AC50 under setting [1] was 18.4 µM [falling, partial curve, poor fit]. Moreover, the AC50 under setting [2] is 29.1 µM [falling, single point].

Turning to `COC(=O)c1sc(NC(=O)/C=C/c2ccc(C)o2)nc1C`, the cell number change is 6.83%. In addition, the AC50 under setting [2] is 5.17 µM [falling, single point].

With `CC(C)(C)NCC(O)(c1ccc(Cl)cc1)c1ccc(Cl)cc1`, the cell number change turned out to be 4.21%.

On to `O=C(N/N=C/c1ccccc1Br)c1cccc(S(=O)(=O)N2CCOCC2)c1`, for which the cell number change was 15.8%. Besides, the half-maximal activity concentration (AC50) under setting [2] is 0.58 µM [rising, partial curve, poor fit].

As for `O=C(Cn1nc(-c2ccc3c(c2)OCCO3)ccc1=O)Nc1cccc(NC(=O)c2ccccn2)c1`, the cell number change was -62.5%.

On to `Clc1ccccc1-c1nnc(-c2cccnc2)o1`, for which the cell number change was 4.67%.

`O=C(Nc1ccc(Cl)cc1)Nc1ccc(N2CCCC2)c(S(=O)(=O)Nc2ccccc2Cl)c1`: the cell number change was -26.2%. Moreover, the AC50 under setting [2] was 29.1 µM [falling, single point].

`O=C1CCC([N+](=O)[O-])C(c2cccc(Br)c2)N1` (stereo unspecified): the AC50 under setting [2] is 29.1 µM [falling, partial curve, poor fit].

Turning to `CN(C)c1ccc(NC(=O)CC2NCCNC2=O)cc1` (stereo unspecified), the cell number change was -40.4%. Also, under setting [1], the AC50 was 29.1 µM [falling, single point]. The AC50 under setting [2] is 29.1 µM [falling, single point].

For the compound `O=c1cc(O)nc(SCc2ccccc2Cl)[nH]1`, the cell number change was -2.01%. Moreover, the AC50 under setting [2] is 20.6 µM [rising, single point].

In the case of `O=C(Nc1ccc(Cl)c([N+](=O)[O-])c1)ONC1=NCCCCC1`, the cell number change is 34.3%. Besides, the half-maximal activity concentration (AC50) under setting [1] is 0.00651 µM [rising, full curve, poor fit].

In the case of `O=C(COc1cccc2ccccc12)N1CCN(c2ccccc2)CC1`, the cell number change was -0.933%. The AC50 under setting [2] is 0.116 µM [rising, full curve].

As to `CCc1nc(Nc2cc(OC)ccc2OC)c2oc3ccccc3c2n1`, the cell number change was -55.6%. The concentration at half-maximal activity (AC50) under setting [1] was 4.61 µM [falling, single point]. For the same compound, the AC50 under setting [2] is 29.1 µM [falling, single point].

In the case of `COC(=O)c1ccc(O)cc1`, the cell number change is -9.72%.

Regarding `COc1cccc(C(=O)OC2CCN(C)CC2)c1`, the cell number change is -26.6%.

Consider `C/C(=N/NC(=O)c1ccco1)c1cccc(NC(=O)c2ccc(C)s2)c1`, for which the cell number change stood at 34.2%. The half-maximal activity concentration (AC50) under setting [1] was 2.91 µM [rising, full curve, poor fit]. Besides, under setting [2], the AC50 is 2.31 µM [rising, partial curve].

With `CC(Oc1ccccc1)C(=O)Nc1cccc(F)c1` (stereo unspecified), the cell number change is -6.22%. In addition, the AC50 under setting [1] was 0.731 µM [falling, full curve]. Besides, the concentration at half-maximal activity (AC50) under setting [2] was 3.26 µM [falling, full curve].

For `CCOC(=O)C1=C(C)N(c2ccccc2)C(=O)NC1c1cccc([N+](=O)[O-])c1` (stereo unspecified), the cell number change is 1.83%. For the same compound, the AC50 under setting [2] is 23.1 µM [rising, single point].

(Values after PubChem BioAssay AID2685 (National Center for Advancing Translational Sciences (NCATS), 2010).)
